No constants are given. Whether binding was seen depends on the method and setting. Binding seen in cells or lysates may run through a third protein. A yes stands for co-enrichment or nearness to the bait. Other partners may have been found. Sequences can lack the tags named with a protein.

By UniProt entry, the sequences of proteins in these tests, tags left out.
UniProt Q14839: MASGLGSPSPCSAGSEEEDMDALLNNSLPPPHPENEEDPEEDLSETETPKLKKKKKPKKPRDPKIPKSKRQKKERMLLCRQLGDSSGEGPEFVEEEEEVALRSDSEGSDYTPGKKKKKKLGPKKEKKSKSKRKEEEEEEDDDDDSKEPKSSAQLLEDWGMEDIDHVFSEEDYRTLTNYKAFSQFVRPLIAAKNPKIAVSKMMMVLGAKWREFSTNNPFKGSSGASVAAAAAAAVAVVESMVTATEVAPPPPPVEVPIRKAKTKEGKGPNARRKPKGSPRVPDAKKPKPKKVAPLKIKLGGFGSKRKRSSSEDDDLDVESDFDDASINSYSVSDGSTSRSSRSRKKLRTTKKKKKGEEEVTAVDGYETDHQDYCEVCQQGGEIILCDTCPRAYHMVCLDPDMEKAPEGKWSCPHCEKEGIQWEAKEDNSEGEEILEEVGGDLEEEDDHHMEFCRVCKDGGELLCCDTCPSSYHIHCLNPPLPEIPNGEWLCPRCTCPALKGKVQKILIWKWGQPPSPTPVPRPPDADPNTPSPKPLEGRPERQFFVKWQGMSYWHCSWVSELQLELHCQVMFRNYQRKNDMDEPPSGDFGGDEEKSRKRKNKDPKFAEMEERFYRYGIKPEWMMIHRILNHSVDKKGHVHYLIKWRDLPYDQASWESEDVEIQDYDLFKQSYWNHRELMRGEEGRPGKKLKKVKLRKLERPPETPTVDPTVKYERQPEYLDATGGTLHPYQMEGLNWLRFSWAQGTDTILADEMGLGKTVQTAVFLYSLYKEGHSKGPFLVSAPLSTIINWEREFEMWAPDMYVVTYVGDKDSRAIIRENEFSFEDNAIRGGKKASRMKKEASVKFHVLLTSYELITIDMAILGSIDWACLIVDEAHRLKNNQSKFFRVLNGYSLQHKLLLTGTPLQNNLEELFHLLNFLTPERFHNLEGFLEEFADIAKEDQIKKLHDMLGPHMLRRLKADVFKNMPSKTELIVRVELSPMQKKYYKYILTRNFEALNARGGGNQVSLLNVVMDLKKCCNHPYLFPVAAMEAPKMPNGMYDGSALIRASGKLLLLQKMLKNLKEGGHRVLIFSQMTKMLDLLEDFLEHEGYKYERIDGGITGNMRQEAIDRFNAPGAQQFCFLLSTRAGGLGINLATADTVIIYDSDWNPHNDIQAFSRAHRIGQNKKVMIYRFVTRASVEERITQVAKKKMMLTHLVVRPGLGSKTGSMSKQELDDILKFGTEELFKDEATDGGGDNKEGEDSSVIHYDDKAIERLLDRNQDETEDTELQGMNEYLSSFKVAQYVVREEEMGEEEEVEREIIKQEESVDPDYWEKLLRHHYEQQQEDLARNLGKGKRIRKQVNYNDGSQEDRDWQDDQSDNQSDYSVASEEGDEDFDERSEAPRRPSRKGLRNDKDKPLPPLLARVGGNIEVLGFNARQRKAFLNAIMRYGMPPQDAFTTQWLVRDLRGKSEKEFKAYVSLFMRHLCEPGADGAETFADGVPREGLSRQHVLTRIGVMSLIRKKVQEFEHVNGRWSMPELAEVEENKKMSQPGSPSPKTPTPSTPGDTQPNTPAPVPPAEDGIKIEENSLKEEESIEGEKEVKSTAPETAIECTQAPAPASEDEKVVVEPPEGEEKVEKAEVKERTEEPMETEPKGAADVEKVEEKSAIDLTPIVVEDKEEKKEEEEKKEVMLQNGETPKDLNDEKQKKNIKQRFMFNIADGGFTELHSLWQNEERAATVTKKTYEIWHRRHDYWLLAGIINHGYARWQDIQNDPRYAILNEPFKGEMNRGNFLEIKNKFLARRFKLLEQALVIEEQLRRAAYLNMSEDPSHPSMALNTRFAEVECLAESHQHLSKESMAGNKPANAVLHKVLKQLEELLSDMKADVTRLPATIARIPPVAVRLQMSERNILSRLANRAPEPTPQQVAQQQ
UniProt Q16531: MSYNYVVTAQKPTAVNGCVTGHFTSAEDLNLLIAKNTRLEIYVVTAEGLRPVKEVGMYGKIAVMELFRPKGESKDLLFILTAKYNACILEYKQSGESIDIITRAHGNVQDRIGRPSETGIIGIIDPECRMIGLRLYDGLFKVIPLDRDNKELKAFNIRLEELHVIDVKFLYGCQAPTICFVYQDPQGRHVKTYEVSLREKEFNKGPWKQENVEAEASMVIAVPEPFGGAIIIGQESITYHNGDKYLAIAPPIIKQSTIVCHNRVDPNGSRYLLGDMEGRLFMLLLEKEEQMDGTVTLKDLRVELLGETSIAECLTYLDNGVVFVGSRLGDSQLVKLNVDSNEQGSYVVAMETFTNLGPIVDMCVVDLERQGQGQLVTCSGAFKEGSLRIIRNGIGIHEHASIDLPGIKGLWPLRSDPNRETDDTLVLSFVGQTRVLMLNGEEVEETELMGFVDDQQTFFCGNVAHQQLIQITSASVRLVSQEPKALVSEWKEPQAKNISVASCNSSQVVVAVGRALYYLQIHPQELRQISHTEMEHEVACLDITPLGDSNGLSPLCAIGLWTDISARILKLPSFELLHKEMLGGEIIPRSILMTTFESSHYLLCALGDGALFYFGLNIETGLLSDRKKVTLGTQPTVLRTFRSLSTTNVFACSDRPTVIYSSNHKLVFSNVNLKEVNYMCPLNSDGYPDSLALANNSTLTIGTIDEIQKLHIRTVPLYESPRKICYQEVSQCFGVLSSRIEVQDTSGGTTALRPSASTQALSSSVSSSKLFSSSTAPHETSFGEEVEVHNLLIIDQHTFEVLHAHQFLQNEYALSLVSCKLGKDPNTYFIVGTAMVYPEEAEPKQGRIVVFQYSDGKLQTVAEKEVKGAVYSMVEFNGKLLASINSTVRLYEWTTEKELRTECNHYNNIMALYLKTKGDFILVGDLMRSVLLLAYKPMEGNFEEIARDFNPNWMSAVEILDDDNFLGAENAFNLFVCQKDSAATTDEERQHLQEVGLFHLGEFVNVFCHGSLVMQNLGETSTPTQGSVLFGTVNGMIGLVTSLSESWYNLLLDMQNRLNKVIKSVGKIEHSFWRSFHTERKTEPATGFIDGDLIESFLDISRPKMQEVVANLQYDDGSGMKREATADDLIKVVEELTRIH
UniProt Q13620: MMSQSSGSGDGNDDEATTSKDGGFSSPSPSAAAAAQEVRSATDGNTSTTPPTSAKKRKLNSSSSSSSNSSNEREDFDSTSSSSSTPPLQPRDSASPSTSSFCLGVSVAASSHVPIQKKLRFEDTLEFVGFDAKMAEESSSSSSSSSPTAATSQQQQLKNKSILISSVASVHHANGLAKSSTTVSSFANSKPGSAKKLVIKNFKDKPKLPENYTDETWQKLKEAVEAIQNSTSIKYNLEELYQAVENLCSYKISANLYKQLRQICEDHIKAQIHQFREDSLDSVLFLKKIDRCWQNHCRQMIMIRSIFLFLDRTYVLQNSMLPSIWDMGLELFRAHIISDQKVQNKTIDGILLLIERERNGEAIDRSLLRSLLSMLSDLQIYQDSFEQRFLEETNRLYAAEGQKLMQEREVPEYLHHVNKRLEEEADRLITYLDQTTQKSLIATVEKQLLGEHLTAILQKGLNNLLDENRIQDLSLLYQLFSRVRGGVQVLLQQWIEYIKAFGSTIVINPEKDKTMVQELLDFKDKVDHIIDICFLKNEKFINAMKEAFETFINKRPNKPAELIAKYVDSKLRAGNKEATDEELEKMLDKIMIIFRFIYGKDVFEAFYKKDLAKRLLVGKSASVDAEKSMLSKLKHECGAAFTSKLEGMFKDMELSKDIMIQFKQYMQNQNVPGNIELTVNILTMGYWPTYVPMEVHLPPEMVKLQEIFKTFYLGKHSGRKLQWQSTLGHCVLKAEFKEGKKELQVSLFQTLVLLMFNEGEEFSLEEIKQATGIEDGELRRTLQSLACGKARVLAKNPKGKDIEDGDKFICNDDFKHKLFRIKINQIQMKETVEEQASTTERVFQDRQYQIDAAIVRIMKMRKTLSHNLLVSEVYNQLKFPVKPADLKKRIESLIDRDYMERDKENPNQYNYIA
UniProt P67809: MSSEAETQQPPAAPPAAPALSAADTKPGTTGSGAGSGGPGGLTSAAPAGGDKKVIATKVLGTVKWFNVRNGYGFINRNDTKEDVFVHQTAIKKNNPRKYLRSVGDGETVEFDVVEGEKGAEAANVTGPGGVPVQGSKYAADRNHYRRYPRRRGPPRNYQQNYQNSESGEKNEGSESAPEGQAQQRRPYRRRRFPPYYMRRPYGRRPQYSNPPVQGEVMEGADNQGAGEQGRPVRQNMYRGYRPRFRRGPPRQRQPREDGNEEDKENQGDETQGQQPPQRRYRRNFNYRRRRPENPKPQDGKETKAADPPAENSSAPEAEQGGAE
UniProt P13010: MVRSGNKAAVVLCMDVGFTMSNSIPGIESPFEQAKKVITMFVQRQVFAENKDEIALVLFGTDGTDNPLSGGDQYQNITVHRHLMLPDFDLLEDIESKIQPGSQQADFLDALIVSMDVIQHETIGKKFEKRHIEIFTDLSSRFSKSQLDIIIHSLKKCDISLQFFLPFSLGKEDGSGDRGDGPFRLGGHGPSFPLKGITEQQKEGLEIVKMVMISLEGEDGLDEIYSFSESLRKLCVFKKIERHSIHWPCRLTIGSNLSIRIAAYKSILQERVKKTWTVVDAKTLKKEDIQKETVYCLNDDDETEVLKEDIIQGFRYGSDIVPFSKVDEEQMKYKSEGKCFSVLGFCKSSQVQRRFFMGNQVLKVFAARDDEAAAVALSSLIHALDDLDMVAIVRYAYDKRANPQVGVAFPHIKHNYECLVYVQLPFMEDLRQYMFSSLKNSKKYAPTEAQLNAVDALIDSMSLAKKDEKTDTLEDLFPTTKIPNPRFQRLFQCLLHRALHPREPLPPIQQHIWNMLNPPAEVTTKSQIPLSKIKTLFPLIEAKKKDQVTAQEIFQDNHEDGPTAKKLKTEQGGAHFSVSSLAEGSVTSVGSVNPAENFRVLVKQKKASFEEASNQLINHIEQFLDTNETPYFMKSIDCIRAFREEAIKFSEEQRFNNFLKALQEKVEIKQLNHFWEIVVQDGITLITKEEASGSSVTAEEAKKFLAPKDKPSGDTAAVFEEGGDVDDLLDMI
UniProt Q09028: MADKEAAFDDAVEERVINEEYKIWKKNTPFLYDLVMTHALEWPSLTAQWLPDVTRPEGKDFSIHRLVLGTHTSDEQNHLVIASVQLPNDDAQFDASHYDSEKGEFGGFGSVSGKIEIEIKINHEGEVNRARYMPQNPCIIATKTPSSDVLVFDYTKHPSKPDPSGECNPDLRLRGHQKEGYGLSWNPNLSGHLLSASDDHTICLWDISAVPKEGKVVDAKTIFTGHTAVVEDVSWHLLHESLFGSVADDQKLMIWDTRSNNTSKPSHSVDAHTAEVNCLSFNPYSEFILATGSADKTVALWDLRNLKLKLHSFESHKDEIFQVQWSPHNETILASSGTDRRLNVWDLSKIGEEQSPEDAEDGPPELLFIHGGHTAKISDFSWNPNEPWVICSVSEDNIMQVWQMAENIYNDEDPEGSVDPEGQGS
UniProt P26038: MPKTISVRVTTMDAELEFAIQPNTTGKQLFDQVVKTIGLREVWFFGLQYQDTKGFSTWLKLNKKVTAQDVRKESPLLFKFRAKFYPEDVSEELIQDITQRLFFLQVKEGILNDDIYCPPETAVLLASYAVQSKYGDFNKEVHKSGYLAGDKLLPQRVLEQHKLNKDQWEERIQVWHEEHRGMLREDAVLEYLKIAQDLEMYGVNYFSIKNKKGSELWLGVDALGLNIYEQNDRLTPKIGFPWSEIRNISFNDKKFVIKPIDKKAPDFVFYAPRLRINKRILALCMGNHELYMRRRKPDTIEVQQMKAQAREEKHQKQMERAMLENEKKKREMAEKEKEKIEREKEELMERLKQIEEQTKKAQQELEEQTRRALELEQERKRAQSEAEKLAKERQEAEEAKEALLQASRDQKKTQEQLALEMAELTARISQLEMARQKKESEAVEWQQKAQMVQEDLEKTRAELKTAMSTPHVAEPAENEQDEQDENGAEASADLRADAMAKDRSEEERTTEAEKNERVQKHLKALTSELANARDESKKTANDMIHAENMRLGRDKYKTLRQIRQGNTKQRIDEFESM
UniProt Q92769: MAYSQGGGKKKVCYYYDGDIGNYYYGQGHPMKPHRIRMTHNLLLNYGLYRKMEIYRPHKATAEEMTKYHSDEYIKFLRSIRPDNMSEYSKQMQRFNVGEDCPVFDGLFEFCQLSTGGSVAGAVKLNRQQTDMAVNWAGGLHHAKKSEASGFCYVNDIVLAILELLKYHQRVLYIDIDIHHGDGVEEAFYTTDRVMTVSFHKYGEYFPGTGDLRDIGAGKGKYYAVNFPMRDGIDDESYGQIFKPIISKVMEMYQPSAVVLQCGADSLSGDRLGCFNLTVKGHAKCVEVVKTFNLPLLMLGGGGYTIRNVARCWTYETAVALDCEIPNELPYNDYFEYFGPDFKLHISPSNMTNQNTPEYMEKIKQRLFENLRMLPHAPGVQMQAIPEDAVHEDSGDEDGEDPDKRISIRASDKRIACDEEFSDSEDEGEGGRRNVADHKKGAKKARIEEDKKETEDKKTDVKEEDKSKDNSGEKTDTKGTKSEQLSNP

The assay has as its target T1, FLAG-CXXC5 (UniProt Q7LFL8).
T1 sequence: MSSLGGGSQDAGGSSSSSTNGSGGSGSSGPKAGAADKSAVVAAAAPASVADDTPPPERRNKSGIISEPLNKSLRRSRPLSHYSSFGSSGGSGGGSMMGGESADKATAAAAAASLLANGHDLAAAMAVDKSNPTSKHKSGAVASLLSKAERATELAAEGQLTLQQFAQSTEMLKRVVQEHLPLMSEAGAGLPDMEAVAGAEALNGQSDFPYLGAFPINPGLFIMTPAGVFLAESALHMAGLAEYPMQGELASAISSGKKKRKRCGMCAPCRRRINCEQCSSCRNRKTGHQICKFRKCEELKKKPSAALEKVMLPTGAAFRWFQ
Description: affinity purification with mass spectrometry; lysate of MCF-7 cells stably expressing FLAG-CXXC5 on an anti-FLAG M2 affinity gel column, eluted with FLAG peptide, gel bands silver stained and analysed by LC-MS/MS.

Take CHD4 (from UniProt Q14839 1-1912): the binding entry is reported as “binds”.

Consider DDB1 (from UniProt Q16531 1-1140), for which the binding result is listed as “binds”.

On to CUL4B (from UniProt Q13620 1-913), for which the binding result is “binds”.

For the substance YBX1 (from UniProt P67809 1-324), the binding entry is listed as “binds”.

Regarding XRCC5 (from UniProt P13010 1-732), the binding entry is recorded as “binds”.

In the case of RbAp48 (from UniProt Q09028 1-425), the binding result was “binds”.

As to MSN (from UniProt P26038 1-577), the binding entry is recorded as “binds”.

Take HDAC2 (from UniProt Q92769 1-488): the binding result was “binds”.
